Here are results for one compound from patent US7528132B2, “Kinase inhibitors” (Schering Corporation, priority 2005, dated 2009).

Chains of the proteins cited; added tags and fusions are not shown.
UniProt P31749, whole entry: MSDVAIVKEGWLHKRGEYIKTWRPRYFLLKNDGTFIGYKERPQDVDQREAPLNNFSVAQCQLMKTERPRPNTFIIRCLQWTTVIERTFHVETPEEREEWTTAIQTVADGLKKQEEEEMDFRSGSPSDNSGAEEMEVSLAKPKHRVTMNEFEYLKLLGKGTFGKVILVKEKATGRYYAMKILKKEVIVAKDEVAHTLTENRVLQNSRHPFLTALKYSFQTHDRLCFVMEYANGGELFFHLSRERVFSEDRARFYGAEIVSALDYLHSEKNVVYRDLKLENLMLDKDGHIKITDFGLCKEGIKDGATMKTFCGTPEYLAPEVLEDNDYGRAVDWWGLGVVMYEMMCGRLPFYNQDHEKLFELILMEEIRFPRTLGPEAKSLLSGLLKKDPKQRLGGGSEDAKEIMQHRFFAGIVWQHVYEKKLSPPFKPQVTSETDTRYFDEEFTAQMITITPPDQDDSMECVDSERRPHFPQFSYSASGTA

For the assay, the target named is Akt1 (Homo sapiens, UniProt P31749). The experiment in a line: Akt1 kinase assay (33P phosphorylation of biotinylated peptide, Flash plates). The class given is biochemical. As to conditions: read-out: IC50 rating (AKT1 inhibition). An excerpt: The assay described below measures the phosphorylation of a biotinylated peptide by active recombinant Akt1 and other kinase isoforms. The biotinylated peptide contains a consensus sequence derived from Akt substrate Gsk3 (Glycogen synthase kinase 3). The ^33P-labeled peptide substrate was captured by streptavidin-coated Flash plates.
Active recombinant Akt1 was expressed in Sf9 insect cells and purified as described by Kumar et al., Biochim. Biophys. Acta. Jun. 15, 2001, 1526(3), 257-268. Biotinylated peptide of the sequence Bio-ahx-RPRAASF was purchased from Syn Pep (Dublin, Calif., USA).
Cloning and Expression of Human Akt1 Sf9 Cells
Human Akt1 cDNA was amplified from a marathon-ready human lung cDNA library (Clonetech) using nested oligo primers as described below. […]
Viral stocks were used to infect large scale Sf9 cells at a multiplicity of infection (MOI) of 2.5. […] Fractions were analyzed by electrophoresis on 10% denaturing polyacrylamide gels and fractions containing 85% pure protein band at 60 KDa were pooled and dialyzed against buffer C (20 mM Tris-HCl pH 7.5, 0.5 mM EDTA,-2 mM DTT, 145 mM NaCl, 0.1 mM sodium vanadate, 5 mM sodium fluoride, 10 mM, β-glycerophosphate and 20% glycerol). […] Protein concentrations were determined using BCA protein assay reagent A (Catalog #23228). […]

The structures given here were assigned with low confidence; some may be wrong.

Consider `CCC[C@@H]1CN(c2nc(-c3ccc4[nH]nc(C)c4c3)nnc2N)CCN1`, for which the IC50 lay in the range of 100 to 1000 nM.
